Data as given in PubChem BioAssay AID652243 (Drosophila RNAi Screening Center, 2013).
Assay: 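Fly regulators of androgen-dependent reporter output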 (primary screen). Cell system: Drosophila S2R+ cells. Reagent: long dsRNA against Drosophila genes. Duration: 72 h (48 h, then 24 h hormone). Challenge: synthetic androgen R1881 at 10 nM for 24 h. Detection: 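Firefly light from an androgen-responsive reporter and Renilla control light per well, raw and unnormalised, for each of two replicates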. Direction: firefly reporter light: higher = more light from androgen-responsive reporter; Renilla control light: higher = more constitutive control signal (cell number, transfection). Hit rule: 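Across duplicate plates, a knock-down whose log firefly/Renilla ratio shifted a set fold down or up from the GFP/LacZ control mean was a hit; the downward cut appears as both 1.5 and 3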. Meaning of the calls: active = hit: reporter lowered or raised; inactive = no hit.
The screen tested about 24,000 reagents; shown is a random part of those that have a named target and a result. In the full data, 246 (1%) were called active. 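Plates not normalised; calls are printed but the firefly/Renilla ratio behind them is not deposited; fold cut for lowering reported inconsistently.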 The raw values are shown without normalisation. The numbers tell different reagents against one gene apart. No sequences are given here. Not given: the amount of reagent.

Gene | reagent | firefly reporter light, replicate 1 | firefly reporter light, replicate 2 | Renilla control light, replicate 1 | Renilla control light, replicate 2 | outcome
kz | 1 | 2.71e5 | 1.97e5 | 3.95e6 | 3.47e6 | inactive
Ctu1 | 1 | 1.48e5 | 1.09e5 | 1.28e6 | 8.28e5 | active
PsGEF | 1 | 2.12e5 | 1.43e5 | 3.24e6 | 2.46e6 | inactive
PsGEF | 2 | 2.66e5 | 2.06e5 | 3.52e6 | 3.28e6 | inactive
PsGEF | 3 | 2.53e5 | 2.60e5 | 1.51e5 | 2.80e5 | inactive
Prm | 1 | 1.19e5 | 1.28e5 | 3.46e5 | 3.95e5 | inactive
Prm | 2 | 1.65e5 | 1.09e5 | 4.03e5 | 4.10e5 | inactive
Prm | 3 | 5.60e5 | 5.64e5 | 1.08e6 | 1.50e6 | inactive
Prm | 4 | 4.76e5 | 3.96e5 | 6.24e5 | 4.25e5 | inactive
CG4712 | 1 | 1.66e5 | 1.07e5 | 1.26e6 | 1.40e6 | inactive
CG14304 | 1 | 6.63e5 | 1.08e6 | 6.86e5 | 7.71e5 | inactive
CG15483 | 1 | 2.46e5 | 2.95e5 | 1.73e6 | 1.73e6 | inactive
hbt | 1 | 1.71e5 | 1.93e5 | 1.44e6 | 1.43e6 | inactive
hbt | 2 | 1.09e6 | 7.31e5 | 7.03e5 | 8.30e5 | inactive
spok | 1 | 9.18e5 | 4.46e5 | 2.16e6 | 1.18e6 | inactive
Cyp4e3 | 1 | 1.54e5 | 69483 | 1.61e6 | 1.00e6 | inactive
Cyp4e3 | 2 | 3.11e5 | 2.50e5 | 6.97e5 | 8.04e5 | inactive
CG8927 | 1 | 1.38e5 | 2.03e5 | 2.41e6 | 2.74e6 | inactive
CG8927 | 2 | 8.55e5 | 1.10e6 | 7.79e5 | 1.03e6 | inactive
Nrk | 1 | 2.61e5 | 1.51e5 | 1.46e6 | 1.47e6 | inactive
Nrk | 2 | – | – | – | – | inactive
Nrk | 3 | – | – | – | – | inactive
Srg2 | 1 | 3.35e5 | 5.72e5 | 5.70e5 | 9.28e5 | inactive
Srg2 | 2 | 7.24e5 | 7.08e5 | 9.73e5 | 1.15e6 | inactive
Tsp39D | 1 | 1.56e5 | 1.57e5 | 1.43e6 | 1.23e6 | inactive
Hayan | 1 | 99363 | 1.45e5 | 6.95e5 | 8.06e5 | inactive
Hayan | 2 | 7.03e5 | 7.95e5 | 2.32e6 | 2.14e6 | inactive
Hayan | 3 | 2.47e5 | 3.87e5 | 5.64e5 | 6.80e5 | inactive
inaD | 1 | 2.17e5 | 2.37e5 | 2.07e6 | 1.96e6 | inactive
inaD | 2 | 3.79e5 | 3.72e5 | 4.10e5 | 3.78e5 | inactive
ckn | 1 | 1.13e6 | 1.21e6 | 1.97e6 | 2.12e6 | inactive
SerT | 1 | 2.60e5 | 2.34e5 | 2.21e6 | 2.47e6 | inactive
SerT | 2 | 4.10e5 | 3.98e5 | 1.20e6 | 1.22e6 | inactive
Aldh7A1 | 1 | 55188 | 35261 | 4.40e5 | 3.78e5 | inactive

Targets above whose gene name starts with S or s (5):
Gene | reagent | firefly reporter light, replicate 1 | firefly reporter light, replicate 2 | Renilla control light, replicate 1 | Renilla control light, replicate 2 | outcome
spok | 1 | 9.18e5 | 4.46e5 | 2.16e6 | 1.18e6 | inactive
Srg2 | 1 | 3.35e5 | 5.72e5 | 5.70e5 | 9.28e5 | inactive
Srg2 | 2 | 7.24e5 | 7.08e5 | 9.73e5 | 1.15e6 | inactive
SerT | 1 | 2.60e5 | 2.34e5 | 2.21e6 | 2.47e6 | inactive
SerT | 2 | 4.10e5 | 3.98e5 | 1.20e6 | 1.22e6 | inactive

The list goes on.
Gene | reagent | firefly reporter light, replicate 1 | firefly reporter light, replicate 2 | Renilla control light, replicate 1 | Renilla control light, replicate 2 | outcome
kibra | 1 | 1.89e5 | 1.33e5 | 3.02e6 | 2.86e6 | inactive
kibra | 2 | 7.79e5 | 8.46e5 | 9.84e5 | 1.17e6 | inactive
kibra | 3 | 3.35e5 | 4.47e5 | 8.62e5 | 8.62e5 | inactive
ppk8 | 1 | 8.08e5 | 5.99e5 | 3.98e5 | 4.08e5 | inactive
CG2961 | 1 | 5.05e5 | 5.39e5 | 2.97e6 | 3.25e6 | inactive
CG2961 | 2 | 1.01e6 | 1.10e6 | 8.12e5 | 1.21e6 | inactive
CG12084 | 1 | 6.26e5 | 5.17e5 | 1.18e6 | 1.09e6 | inactive
CG12084 | 2 | 2.96e5 | 2.33e5 | 4.23e5 | 2.29e5 | inactive
CG8399 | 1 | 1.22e6 | 1.24e6 | 2.52e6 | 2.18e6 | inactive
CG17633 | 1 | 1.89e5 | 1.11e5 | 1.40e6 | 1.09e6 | inactive
CG17633 | 2 | 2.72e5 | 3.74e5 | 7.44e5 | 1.16e6 | inactive
Trxr2 | 1 | 1.51e5 | 1.18e5 | 1.68e6 | 1.12e6 | inactive
Trxr2 | 2 | 3.95e5 | 3.27e5 | 6.11e5 | 5.08e5 | inactive
CG14408 | 1 | 1.20e6 | 9.37e5 | 1.34e6 | 1.52e6 | inactive
mthl8 | 1 | 7.49e5 | 7.64e5 | 1.62e6 | 1.38e6 | inactive
mthl8 | 2 | 82330 | 94186 | 1.74e6 | 1.75e6 | inactive
Nup133 | 1 | 51121 | 81006 | 6.78e5 | 8.55e5 | inactive
ldd | 1 | 70676 | 1.43e5 | 4.17e5 | 3.13e5 | inactive
ldd | 2 | 9.27e5 | 7.93e5 | 1.53e6 | 1.91e6 | inactive
TpnC73F | 1 | 2.96e5 | 2.44e5 | 2.06e6 | 1.85e6 | inactive
Oat | 1 | 12707 | 13885 | 1.81e5 | 1.49e5 | inactive
Pxt | 1 | 1.51e5 | 1.80e5 | 1.15e6 | 1.36e6 | inactive
Eaat1 | 1 | 1.61e5 | 1.06e5 | 1.47e6 | 1.02e6 | inactive
CG14015 | 1 | 77969 | 56853 | 9.42e5 | 6.76e5 | inactive
CG14015 | 2 | 2.66e5 | 2.69e5 | 6.78e5 | 7.24e5 | inactive
